Assay [1] deals with T1, FLAG-tagged REV-ERBα (UniProt Q3UV55).
T1 sequence: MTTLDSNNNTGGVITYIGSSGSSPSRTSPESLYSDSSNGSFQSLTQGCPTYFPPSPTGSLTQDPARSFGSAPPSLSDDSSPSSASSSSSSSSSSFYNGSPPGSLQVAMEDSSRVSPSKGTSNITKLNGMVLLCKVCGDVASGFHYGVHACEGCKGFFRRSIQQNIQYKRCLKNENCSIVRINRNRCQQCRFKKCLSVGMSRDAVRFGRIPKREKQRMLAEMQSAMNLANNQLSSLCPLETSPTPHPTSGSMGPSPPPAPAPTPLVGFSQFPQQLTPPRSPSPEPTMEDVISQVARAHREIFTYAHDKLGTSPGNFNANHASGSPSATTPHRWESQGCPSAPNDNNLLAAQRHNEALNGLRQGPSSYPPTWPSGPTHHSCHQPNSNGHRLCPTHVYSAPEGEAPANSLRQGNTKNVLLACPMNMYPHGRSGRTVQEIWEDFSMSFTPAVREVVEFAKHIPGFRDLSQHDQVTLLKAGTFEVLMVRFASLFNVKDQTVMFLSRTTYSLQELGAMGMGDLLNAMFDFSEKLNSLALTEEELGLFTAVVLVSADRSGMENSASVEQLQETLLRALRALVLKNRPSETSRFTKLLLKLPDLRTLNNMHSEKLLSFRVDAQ
The assay is described as follows: co-IP; HEK 293 cells transfected with indicated plasmids for 24 hours before treatment (GW4064, with or without ethanol); Pierce IP lysis buffer; anti-flag M2 magnetic beads; detected with mouse anti-FLAG and rabbit anti-GFP.

For assay [2], the target named is T1, FLAG-tagged REV-ERBα. Description: proximity ligation; Duolink in situ PLA (Red Starter Kit mouse/rabbit); FLAG-REV-ERBα and GFP-SHP coexpressed in HEK293T cells for 24 hours; cells fixed with 4% paraformaldehyde; mouse anti-FLAG and rabbit anti-GFP; confocal imaging.

No constants are given. Whether binding was seen depends on the method and setting. Binding seen in cells or lysates may run through a third protein. Some binding calls cover weakened binding; strength is not graded here. Tags and fused reporters may be left off the sequences shown.

B1: GFP-tagged SHP (small heterodimer partner, NR0B2) (protein, UniProt Q62227 1-260)
chain: MSSGQSGVCPCQGSAGRPTILYALLSPSPRTRPVAPASHSHCLCQQQRPVRLCAPHRTCREALDVLAKTVAFLRNLPSFCHLPHEDQRRLLECCWGPLFLLGLAQDAVTFEVAEAPVPSILKKILLEEASSGTQGAQPSDRPQPSLAAVQWLQRCLESFWSLELGPKEYAYLKGTILFNPDVPGLRASCHIAHLQQEAHWALCEVLEPWYPASQGRLARILLMASTLKNIPGTLLVDLFFRPIMGDVDITELLEDMLLLR
Regarding B1, the binding entry with FLAG-tagged REV-ERBα [1] and in the assay with FLAG-tagged REV-ERBα [2] was “binds” throughout.

The values are drawn from publication PMC8410014.
